Experiment [1] addresses T1, PfGBP2::GFP (P. falciparum (endogenous in 3D7 parasites)) (UniProt Q8IJX3).
T1 sequence: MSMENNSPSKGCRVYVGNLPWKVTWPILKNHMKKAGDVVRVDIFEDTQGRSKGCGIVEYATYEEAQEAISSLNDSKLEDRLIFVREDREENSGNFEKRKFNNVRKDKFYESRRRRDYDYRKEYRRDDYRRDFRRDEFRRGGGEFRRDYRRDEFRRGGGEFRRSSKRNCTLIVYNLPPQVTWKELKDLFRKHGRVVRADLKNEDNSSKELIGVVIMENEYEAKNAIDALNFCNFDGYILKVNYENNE
Description: affinity purification with mass spectrometry; GFP-Trap beads with lysate of PfGBP2::GFP stressed schizonts; same buffers (300 mM NaCl, 0.1% NP40), 4 °C, 2 h; agarose beads as control; LC-MS/MS, SAINT, FDR 1%.

Sequences of proteins named here, by UniProt entry; tags and fusion partners are left off.
UniProt Q8IKF0: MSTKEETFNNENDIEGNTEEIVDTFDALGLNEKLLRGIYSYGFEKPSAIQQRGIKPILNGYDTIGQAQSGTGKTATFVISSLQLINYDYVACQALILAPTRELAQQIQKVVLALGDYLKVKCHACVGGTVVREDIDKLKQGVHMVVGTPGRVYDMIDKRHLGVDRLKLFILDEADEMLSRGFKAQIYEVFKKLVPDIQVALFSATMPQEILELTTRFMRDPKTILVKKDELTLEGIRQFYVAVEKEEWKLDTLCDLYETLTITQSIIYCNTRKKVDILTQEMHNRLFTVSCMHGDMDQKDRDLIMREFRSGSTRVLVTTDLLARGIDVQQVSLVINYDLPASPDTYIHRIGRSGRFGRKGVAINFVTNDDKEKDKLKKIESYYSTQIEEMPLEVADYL

For experiment [2], the target named is T2, PfDOZI::GFP (P. falciparum (endogenous in 3D7 parasites)) (UniProt O97285).
T2 sequence: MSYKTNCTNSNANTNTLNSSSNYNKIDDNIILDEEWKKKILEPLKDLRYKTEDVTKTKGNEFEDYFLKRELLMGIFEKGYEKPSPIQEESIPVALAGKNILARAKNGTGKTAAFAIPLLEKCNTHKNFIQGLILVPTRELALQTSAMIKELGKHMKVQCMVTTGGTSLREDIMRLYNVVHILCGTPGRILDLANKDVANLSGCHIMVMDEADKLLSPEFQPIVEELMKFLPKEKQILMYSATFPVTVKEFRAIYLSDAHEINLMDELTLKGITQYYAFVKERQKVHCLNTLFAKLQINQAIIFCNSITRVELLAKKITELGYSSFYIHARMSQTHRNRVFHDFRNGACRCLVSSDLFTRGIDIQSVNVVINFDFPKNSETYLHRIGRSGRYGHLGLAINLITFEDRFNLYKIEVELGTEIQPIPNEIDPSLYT
Description: affinity purification with mass spectrometry; GFP-Trap beads with lysate of purified PfDOZI::GFP gametocytes (day 5), native conditions; same buffers (300 mM NaCl, 0.1% NP40), 4 °C, 2 h; agarose beads as control; LC-MS/MS in triplicate, SAINT, FDR 1%.

Experiment [3] deals with T2, PfDOZI::GFP (P. falciparum (endogenous in 3D7 parasites)). Description: condition: only schizonts under nutrient starvation; affinity purification with mass spectrometry; GFP-Trap beads with lysate of PfDOZI::GFP schizonts under nutrient starvation (stressed schizonts), native conditions; same buffers (300 mM NaCl, 0.1% NP40), 4 °C, 2 h; agarose beads as control; LC-MS/MS in triplicate, SAINT, FDR 1%.

For experiment [4] the target is unchanged. The experiment can be described thus: affinity purification with mass spectrometry; GFP-Trap beads with lysate of PfDOZI::GFP schizonts under normal culture, native conditions; lysis and wash buffer 300 mM NaCl, 20 mM HEPES pH 7.9, 2 mM MgCl2, 0.2 mM EDTA, 0.1% NP40, 0.5 mM DTT; 4 °C, 2 h; agarose beads as control; LC-MS/MS in triplicate, SAINT, FDR 1%.
In experiment [5] the target is T3, PfDCP2::GFP (P. falciparum (endogenous in 3D7 parasites)) (UniProt Q8IEM5).
T3 sequence: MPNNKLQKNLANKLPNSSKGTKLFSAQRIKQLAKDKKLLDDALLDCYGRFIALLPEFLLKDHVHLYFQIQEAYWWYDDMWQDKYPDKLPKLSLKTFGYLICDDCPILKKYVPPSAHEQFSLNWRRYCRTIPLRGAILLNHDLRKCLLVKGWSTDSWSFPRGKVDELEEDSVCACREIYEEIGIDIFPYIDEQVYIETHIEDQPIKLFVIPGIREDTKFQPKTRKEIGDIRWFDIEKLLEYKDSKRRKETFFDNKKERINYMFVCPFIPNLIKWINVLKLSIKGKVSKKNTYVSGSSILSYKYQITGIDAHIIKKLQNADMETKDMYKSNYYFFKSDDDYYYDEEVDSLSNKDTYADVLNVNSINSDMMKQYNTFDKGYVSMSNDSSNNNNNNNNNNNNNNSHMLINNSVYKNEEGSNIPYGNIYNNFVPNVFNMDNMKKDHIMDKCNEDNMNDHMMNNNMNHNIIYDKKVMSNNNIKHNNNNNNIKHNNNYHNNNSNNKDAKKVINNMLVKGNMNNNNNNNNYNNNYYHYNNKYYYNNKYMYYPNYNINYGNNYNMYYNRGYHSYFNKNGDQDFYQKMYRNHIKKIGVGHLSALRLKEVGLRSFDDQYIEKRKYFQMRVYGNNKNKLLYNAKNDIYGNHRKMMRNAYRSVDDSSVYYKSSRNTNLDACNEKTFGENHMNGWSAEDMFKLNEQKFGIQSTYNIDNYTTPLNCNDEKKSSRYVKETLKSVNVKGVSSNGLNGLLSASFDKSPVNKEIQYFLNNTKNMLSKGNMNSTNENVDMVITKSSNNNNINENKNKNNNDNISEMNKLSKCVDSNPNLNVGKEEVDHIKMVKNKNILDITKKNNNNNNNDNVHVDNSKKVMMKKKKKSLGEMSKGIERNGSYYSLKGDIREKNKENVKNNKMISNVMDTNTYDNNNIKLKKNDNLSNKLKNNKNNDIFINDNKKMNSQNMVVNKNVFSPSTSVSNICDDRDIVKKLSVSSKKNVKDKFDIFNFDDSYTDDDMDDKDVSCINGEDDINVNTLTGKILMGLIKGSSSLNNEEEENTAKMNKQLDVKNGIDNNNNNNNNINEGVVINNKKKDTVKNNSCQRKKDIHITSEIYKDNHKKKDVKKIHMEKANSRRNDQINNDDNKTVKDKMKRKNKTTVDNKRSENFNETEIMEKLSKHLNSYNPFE
Description: affinity purification with mass spectrometry; GFP-Trap beads with lysate of PfDCP2::GFP parasites at the schizont stage; same buffers (300 mM NaCl, 0.1% NP40), 4 °C, 2 h; agarose beads as control; LC-MS/MS, SAINT, FDR 1%.

Experiment [6] concerns the target T2, PfDOZI::GFP (P. falciparum (endogenous in 3D7 parasites)). The experiment can be described thus: condition: only schizonts under nutrient starvation; affinity purification with mass spectrometry; GFP-Trap beads with lysate of PfDOZI::GFP schizonts under nutrient starvation (stressed schizonts), native conditions; same buffers (300 mM NaCl, 0.1% NP40), 4 °C, 2 h; agarose beads as control; LC-MS/MS in triplicate, SAINT, FDR 1%. This is another data set of the same source.

No constants are given. Whether binding was seen depends on the method and setting. Binding seen in cells or lysates may run through a third protein. These calls come from enrichment with a bait or labelling near it, and not all partners need be listed. For part of these data: No binding means not detected with the bait. Where a sequence is shown, tags or fusion partners need not be part of it.

With eIF4A (from UniProt Q8IKF0 1-398), the binding entry in experiment [1] is “binds”; in experiment [2], “binds”; in experiment [3], “no binding”; in experiment [4] it was “binds”.

B1: G-strand binding protein 2 (protein, UniProt Q8IJX3 1-246)
chain: T1 sequence
For the molecule B1, the binding result is “no binding” in experiment [5], “no binding” in experiment [6], “binds” in experiment [2] and “binds” in experiment [4].

B2: RACK1 kinase (protein, UniProt Q8IBA0 1-323)
chain: MMDNIKEAEISLRGVLEGGHSDWVTSVSTPTDPKLKTIVSASRDKKLIVWNINTDDDSGEIGTAKKSLTGHSQAINDVSISSDGLFALSGSWDHSVRLWDLSLGETIRSFIGHTSDVFSVSFSPDNRQIVSASRDKTIKLWNTLAQCKYTITDQQHTDWITCVRFSPSPNQAIIVSCGWDKLVKVWNLKNCDLNKNLEGHTGVLNTVTISPDGSLCASGGKDGVAKLWDVKEGKHLYSLETGSTINSLCFSPCDYWLCAATDRFIRIWNLESKLIISEIYPVKQSKIGVPWCTSLTWSANGQLLYCGSTDGNIYVYEVKKHSV
For B2, the binding result is “no binding” in experiment [6] and “binds” in experiment [4].

B3: PfDOZI (protein, UniProt O97285 1-433)
chain: T2 sequence
With B3, the binding entry in experiment [5] and in experiment [1] was “binds” each time.

The record behind these values is publication PMC11068891.
